# Patent publication US20250281464A1, “TREATMENT OF PATHOGENIC NEISSERIA SP. INFECTION WITH TRIAZOLE ANTIFUNGAL AGENTS” (Virginia Tech Intellectual Properties, Inc., priority 2022, published 2025)
# Some results were stated once for a whole list of compounds, not compound by compound.
# Test system: N. gonorrhoeae
# Format: cell-based, Neisseria gonorrhoeae
# Conditions: 10×MIC; no resistant mutants isolated
smiles,measurement,value
C[C@@H](c1nc(-c2ccc(C#N)cc2)cs1)[C@](O)(Cn1cncn1)c1cc(F)ccc1F [Isavuconazole],resistance frequency,< 1.64×10^−10
